Reference: patent US9464280B1, “Beta-lactamases with improved properties for therapy” (priority 2014, dated 2016)
The name of at least one read-out is uncertain.

Test: Kinetic parameters of P1A mutant strains
Format: biochemical
Settings: concentrated B. subtilis supernatant
Description: β-lactamase activity of the mutants was further characterised from E. coli cell lysates and B. subtilis growth supernatant with ampicillin, cefotaxime, ceftriaxone, cefuroxime, ceftazidime, meropenem and imipenem. The activities were determined using only one substrate concentration of each antibiotic tested. Selection of the antibiotic concentration was done with the antibiotic concentration as high as was practical, [S]>>Km. Based on these preliminary experiments, more accurate kinetic parameters were determined for a couple of mutants from both the site-directed and the random mutagenesis research lines. All the mutant enzymes selected for more detailed study were expressed in the B. subtilis host strain RS303. The cells carrying the mutated proteins were grown in minimal medium over-night after which the cells were harvested and the supernatant was concentrated in 1:10 with Amicon Ultra-4 centrifugal devices, MWCO 10000 (Amicon). Protein concentration in each culture supernatant was estimated from 12% SDS-PAGE (Criterion XT Bis-Tris, BioRad, Calif., USA) using the P1A reference material A18K31 as a standard. Kinetic parameters were measured for cefotaxime, ceftriaxone and cefuroxime for each selected mutant strain. The site-directed mutants were designed to hydrolyze cefotaxime and random mutants were screened with ceftriaxone, which made these antibiotics natural choices for determining kinetic parameters.

## P1A: Wild type; recombinant Bacillus licheniformis 749/C small exo beta-lactamase (PenP), SEQ ID NO: 1
  Cefotaxime kcat/Km: 68000 M⁻¹ s⁻¹
  Ceftriaxone kcat/Km: 141000 M⁻¹ s⁻¹
  Cefuroxime kcat/Km: 211000 M⁻¹ s⁻¹
